The list shows a part of the results. Repeats are few or missing, and single values can be far off.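 Cells were imaged in 1,536-well plates, and nuclei stained with an antibody against cleaved PARP were counted against all DNA-stained nuclei to give the apoptosis fraction. Screening doses were chosen to leave most cells alive, and resting and induced cleaved-PARP levels differ strongly between cell lines.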
Tests used:
Assay in all cases: cleaved PARP positive nuclei fraction relative to DMSO control; melanoma cells; higher = more apoptosis
Conditions in all cases: library dose: low library concentration; 72 h
WM115 = system: WM115
WM1716 = system: WM1716
WM1745 = system: WM1745
WM3526 = system: WM3526
WM3619 = system: WM3619
WM451Lu = system: WM451Lu

Structure (SMILES) | cleaved PARP positive nuclei fraction (WM115) [%] | cleaved PARP positive nuclei fraction (WM1716) [%] | cleaved PARP positive nuclei fraction (WM1745) [%] | cleaved PARP positive nuclei fraction (WM3526) [%] | cleaved PARP positive nuclei fraction (WM3619) [%] | cleaved PARP positive nuclei fraction (WM451Lu) [%]
C#Cc1cccc(Nc2ncnc3cc(OCCOC)c(OCCOC)cc23)c1 [erlotinib] + C/C(O)=C(\C#N)C(=O)Nc1cc(Br)ccc1Br [LFM-A13] (first compound 0.8 µM, partner dose 2 µM) | 122 | 97.5 | 127 | 70.7 | 76.6 | 184
C[As](C)SC[C@H](NC(=O)CC[C@H](N)C(=O)O)C(=O)NCC(=O)O [Darinaparsin] + Cn1cncc1[C@@](N)(c1ccc(Cl)cc1)c1ccc2c(c1)c(-c1cccc(Cl)c1)cc(=O)n2C [tipifarnib] (first compound 0.4 µM, partner dose 0.01 µM) | 186 | 43.7 | 93 | 130 | 105 | 97.5
Cc1cn(-c2cc(NC(=O)c3ccc(C)c(Nc4nccc(-c5cccnc5)n4)c3)cc(C(F)(F)F)c2)cn1 [nilotinib] + C[C@]12O[C@H](C[C@]1(O)CO)n1c3ccccc3c3c4c(c5c6ccccc6n2c5c31)CNC4=O [Lestaurtinib] (first compound 0.2 µM, partner dose 0.004 µM) | 90.9 | 85.5 | 119 | 71.1 | 90.9 | 154
O=C(/C=C/c1cccnc1)NCCCCC1CCN(C(=O)c2ccccc2)CC1 + C[As](C)SC[C@H](NC(=O)CC[C@H](N)C(=O)O)C(=O)NCC(=O)O [Darinaparsin] (first compound 0.01 µM, partner dose 0.4 µM) | 96.8 | 592 | 81.2 | 40.8 | 73.1 | 89.3
O=C(CCCCCCC(=O)Nc1ccccc1)NO [vorinostat] + C/C(O)=C(\C#N)C(=O)Nc1cc(Br)ccc1Br [LFM-A13] (first compound 0.08 µM, partner dose 2 µM) | 94.5 | 35.9 | 99.1 | 135 | 105 | 65.1
NC(=O)Nc1cc(-c2cccc(F)c2)sc1C(=O)N[C@H]1CCCNC1 + O=C(Oc1ccc([N+](=O)[O-])cc1)N1CCC(C(O)(c2ccc3c(c2)OCO3)c2ccc3c(c2)OCO3)CC1 [JZL184] (first compound 0.02 µM, partner dose 1 µM) | 125 | 67.3 | 95.8 | 148 | 104 | 162
C[As](C)SC[C@H](NC(=O)CC[C@H](N)C(=O)O)C(=O)NCC(=O)O [Darinaparsin] + COc1cc(Nc2ncc(F)c(Nc3ccc4c(n3)NC(=O)C(C)(C)O4)n2)cc(OC)c1OC [Tamatinib] (first compound 0.4 µM, partner dose 0.4 µM) | 352 | 107 | 141 | 62.6 | 131 | 77.9
CCCCCCCCCCCCCCCCCCOP(=O)([O-])OC1CC[N+](C)(C)CC1 [Perifosine] + C[C@]12O[C@H](C[C@]1(O)CO)n1c3ccccc3c3c4c(c5c6ccccc6n2c5c31)CNC4=O [Lestaurtinib] (first compound 0.4 µM, partner dose 0.004 µM) | 99.3 | 74.9 | 102 | 98 | 95.2 | 15.9
CS(=O)(=O)c1ccc(C(=O)Nc2ccc(Cl)c(-c3ccccn3)c2)c(Cl)c1 [vismodegib] + Cc1cc(SCc2sc(-c3ccc(C(F)(F)F)c(F)c3)nc2C)ccc1OCC(=O)O [GW0742] (first compound 1 µM, partner dose 2 µM) | 101 | 67.1 | 84.9 | 78.8 | 74.4 | 154
O=C(Oc1ccc([N+](=O)[O-])cc1)N1CCC(C(O)(c2ccc3c(c2)OCO3)c2ccc3c(c2)OCO3)CC1 + Cn1cc(/C=C2\C(=O)Nc3cccnc32)c2ccccc21 [GW441756] (first compound 1 µM, partner dose 0.4 µM) | 72.4 | 14.2 | 112 | 58.8 | 88 | 102
C[C@]12O[C@H](C[C@]1(O)CO)n1c3ccccc3c3c4c(c5c6ccccc6n2c5c31)CNC4=O [Lestaurtinib] + O=C(CCCCCCC(=O)Nc1ccccc1)NO [vorinostat] (first compound 0.004 µM, partner dose 0.08 µM) | 70.6 | 116 | 80.2 | 69.6 | 110 | 66.8
Cc1cc(SCc2sc(-c3ccc(C(F)(F)F)c(F)c3)nc2C)ccc1OCC(=O)O + C/C(O)=C(\C#N)C(=O)Nc1cc(Br)ccc1Br [LFM-A13] (first compound 2 µM, partner dose 2 µM) | 104 | 86.6 | 103 | 191 | 90.4 | 106
CCCCCCCCc1ccc(CCC(N)(CO)CO)cc1 [fingolimod] + C/C(O)=C(\C#N)C(=O)Nc1cc(Br)ccc1Br [LFM-A13] (first compound 2 µM, partner dose 2 µM) | 122 | 155 | 199 | 175 | 103 | 49.8
C[As](C)SC[C@H](NC(=O)CC[C@H](N)C(=O)O)C(=O)NCC(=O)O [Darinaparsin] + CN(C)S(=O)(=O)c1ccc2c(c1)/C(=C/c1cc3c([nH]1)CCCC3)C(=O)N2 [SU6656] (first compound 0.4 µM, partner dose 0.4 µM) | 65.8 | 44.6 | 87.2 | 64 | 97.4 | 49.8
N.N.[Cl][Pt][Cl] [cisplatin] + O=C(O)[C@@H]1[O][Sb](=[O])([O][Sb]2(=[O])[O][C@H]([C@H](O)CO)[C@H](O)[C@H](C(=O)O)[O]2)[O][C@H]([C@H](O)CO)[C@@H]1O [stibogluconate] (first compound 1.6 µM, partner dose 2 µM) | 238 | 165 | 111 | 46.8 | 99.4 | 126
N.N.[Cl][Pt][Cl] [cisplatin] + CO[C@H]1C[C@@H]2CC[C@@H](C)[C@@](O)(O2)C(=O)C(=O)N2CCCC[C@H]2C(=O)O[C@H]([C@H](C)C[C@@H]2CC[C@@H](OCCO)[C@H](OC)C2)CC(=O)[C@H](C)/C=C(\C)[C@@H](O)[C@@H](OC)C(=O)[C@H](C)C[C@H](C)/C=C/C=C/C=C/1C [everolimus] (first compound 1.6 µM, partner dose 0.02 µM) | 172 | 93 | 105 | 108 | 122 | 136
Cn1cc(C2=C(c3cn(C4CCN(Cc5ccccn5)CC4)c4ccccc34)C(=O)NC2=O)c2ccccc21 [Enzastaurin] + CN(NC(=O)CC(=O)NN(C)C(=S)c1ccccc1)C(=S)c1ccccc1 [STA4783] (first compound 0.8 µM, partner dose 0.006 µM) | 31.9 | 261 | 336 | 35.8 | 210 | 49.8
Cn1cc(C2=C(c3cn(C4CCN(Cc5ccccn5)CC4)c4ccccc34)C(=O)NC2=O)c2ccccc21 [Enzastaurin] + O=C1NC(=O)/C(=C/c2ccc(-c3ccc(F)cc3O)o2)S1 [AS252424] (first compound 0.8 µM, partner dose 1 µM) | 131 | 69.1 | 90 | 159 | 80.1 | 34.4
O=C(Nc1cc(C(F)(F)F)cc(C(F)(F)F)c1)c1cc(Cl)ccc1O + C/C(O)=C(\C#N)C(=O)Nc1cc(Br)ccc1Br [LFM-A13] (first compound 0.016 µM, partner dose 2 µM) | 64.2 | 109 | 82.7 | 95.8 | 96.7 | 48.8
Cc1ccc(Nc2nccc(N(C)c3ccc4c(C)n(C)nc4c3)n2)cc1S(N)(=O)=O [Pazopanib] + O=C(Oc1ccc([N+](=O)[O-])cc1)N1CCC(C(O)(c2ccc3c(c2)OCO3)c2ccc3c(c2)OCO3)CC1 [JZL184] (first compound 0.4 µM, partner dose 1 µM) | 95.6 | 50.7 | 99.6 | 91.4 | 95 | 41.3
Cn1cc(C2=C(c3cn(C4CCN(Cc5ccccn5)CC4)c4ccccc34)C(=O)NC2=O)c2ccccc21 [Enzastaurin] + COc1cc(Nc2ncc(F)c(Nc3ccc4c(n3)NC(=O)C(C)(C)O4)n2)cc(OC)c1OC [Tamatinib] (first compound 0.8 µM, partner dose 0.4 µM) | 133 | 152 | 119 | 59.5 | 117 | 151
C[As](C)SC[C@H](NC(=O)CC[C@H](N)C(=O)O)C(=O)NCC(=O)O [Darinaparsin] + C/C(O)=C(\C#N)C(=O)Nc1cc(Br)ccc1Br [LFM-A13] (first compound 0.4 µM, partner dose 2 µM) | 96.9 | 93.5 | 99.4 | 71.9 | 71.8 | 145
C[C@]12O[C@H](C[C@]1(O)CO)n1c3ccccc3c3c4c(c5c6ccccc6n2c5c31)CNC4=O [Lestaurtinib] + Oc1cc(-c2nc(-c3ccccc3)[nH]c2-c2ccncc2)ccc1Cl [L779450] (first compound 0.004 µM, partner dose 0.2 µM) | 85.4 | 82.4 | 89.2 | 444 | 84.5 | 38.3
C[C@]12O[C@H](C[C@]1(O)CO)n1c3ccccc3c3c4c(c5c6ccccc6n2c5c31)CNC4=O [Lestaurtinib] + Cc1nc(Nc2ncc(C(=O)Nc3c(C)cccc3Cl)s2)cc(N2CCN(CCO)CC2)n1 [dasatanib] (first compound 0.004 µM, partner dose 0.004 µM) | 109 | 157 | 124 | 91.4 | 95.2 | 189
C[As](C)SC[C@H](NC(=O)CC[C@H](N)C(=O)O)C(=O)NCC(=O)O [Darinaparsin] + CO[C@@H]1[C@H](N(C)C(=O)c2ccccc2)C[C@H]2O[C@]1(C)n1c3ccccc3c3c4c(c5c6ccccc6n2c5c31)C(=O)NC4 [Midostaurin] (first compound 0.4 µM, partner dose 0.08 µM) | 70 | 109 | 93.4 | 39.7 | 95.8 | 84.6

Nothing new here: entries from further up.
Structure (SMILES) | cleaved PARP positive nuclei fraction (WM115) [%] | cleaved PARP positive nuclei fraction (WM1716) [%] | cleaved PARP positive nuclei fraction (WM1745) [%] | cleaved PARP positive nuclei fraction (WM3526) [%] | cleaved PARP positive nuclei fraction (WM3619) [%] | cleaved PARP positive nuclei fraction (WM451Lu) [%]
C[C@]12O[C@H](C[C@]1(O)CO)n1c3ccccc3c3c4c(c5c6ccccc6n2c5c31)CNC4=O [Lestaurtinib] + O=C(CCCCCCC(=O)Nc1ccccc1)NO [vorinostat] (first compound 0.004 µM, partner dose 0.08 µM) | 70.6 | 116 | 80.2 | 69.6 | 110 | 66.8
Cc1cc(SCc2sc(-c3ccc(C(F)(F)F)c(F)c3)nc2C)ccc1OCC(=O)O + C/C(O)=C(\C#N)C(=O)Nc1cc(Br)ccc1Br [LFM-A13] (first compound 2 µM, partner dose 2 µM) | 104 | 86.6 | 103 | 191 | 90.4 | 106
CCCCCCCCc1ccc(CCC(N)(CO)CO)cc1 [fingolimod] + C/C(O)=C(\C#N)C(=O)Nc1cc(Br)ccc1Br [LFM-A13] (first compound 2 µM, partner dose 2 µM) | 122 | 155 | 199 | 175 | 103 | 49.8
C[As](C)SC[C@H](NC(=O)CC[C@H](N)C(=O)O)C(=O)NCC(=O)O [Darinaparsin] + CN(C)S(=O)(=O)c1ccc2c(c1)/C(=C/c1cc3c([nH]1)CCCC3)C(=O)N2 [SU6656] (first compound 0.4 µM, partner dose 0.4 µM) | 65.8 | 44.6 | 87.2 | 64 | 97.4 | 49.8
N.N.[Cl][Pt][Cl] [cisplatin] + O=C(O)[C@@H]1[O][Sb](=[O])([O][Sb]2(=[O])[O][C@H]([C@H](O)CO)[C@H](O)[C@H](C(=O)O)[O]2)[O][C@H]([C@H](O)CO)[C@@H]1O [stibogluconate] (first compound 1.6 µM, partner dose 2 µM) | 238 | 165 | 111 | 46.8 | 99.4 | 126
N.N.[Cl][Pt][Cl] [cisplatin] + CO[C@H]1C[C@@H]2CC[C@@H](C)[C@@](O)(O2)C(=O)C(=O)N2CCCC[C@H]2C(=O)O[C@H]([C@H](C)C[C@@H]2CC[C@@H](OCCO)[C@H](OC)C2)CC(=O)[C@H](C)/C=C(\C)[C@@H](O)[C@@H](OC)C(=O)[C@H](C)C[C@H](C)/C=C/C=C/C=C/1C [everolimus] (first compound 1.6 µM, partner dose 0.02 µM) | 172 | 93 | 105 | 108 | 122 | 136

— the supplement of paper PMC4604168 (melanoma cell lines)
